The list shows a part of the results.
Compound: COc1ccc(Cn2ccc3cc(C)c(C(=O)NO)cc32)cc1
Assay: dose-dependent thermal stabilisation call (2D-TPP, DLPTP, 10% FDR) (binary (1 = stabilised)); higher = stabilised by the compound
Details: system: HL-60 intact cells; concentration range 0.04-10 µM
Procedure: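 2D thermal proteome profiling in intact HL-60 cells treated with BRD-3811 (0, 0.04, 0.29, 2, 10 uM) for 90 min at 37 C, then heated 3 min at one of 12 temperatures (42-63.9 C). Soluble protein was quantified by TMT10 MS. The value is the DLPTP call of the paper: dose-dependent thermal stabilisation over all temperatures at 10% FDR (F-test of a dose-response against a flat model); one experiment, one call per tested protein.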

By UniProt entry, the sequences of proteins in these tests, tags left out. Where a name states a change or a piece, a line headed by the entry shows the natural chain unless it says otherwise.
UniProt P60891: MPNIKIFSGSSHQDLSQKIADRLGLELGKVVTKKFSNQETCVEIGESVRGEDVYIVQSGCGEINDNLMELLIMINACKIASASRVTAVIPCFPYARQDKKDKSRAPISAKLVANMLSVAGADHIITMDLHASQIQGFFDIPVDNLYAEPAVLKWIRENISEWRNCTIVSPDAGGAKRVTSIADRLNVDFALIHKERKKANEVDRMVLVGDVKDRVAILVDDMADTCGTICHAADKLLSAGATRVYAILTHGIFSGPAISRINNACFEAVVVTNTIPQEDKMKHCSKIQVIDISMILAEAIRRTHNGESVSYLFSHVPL
UniProt Q15054: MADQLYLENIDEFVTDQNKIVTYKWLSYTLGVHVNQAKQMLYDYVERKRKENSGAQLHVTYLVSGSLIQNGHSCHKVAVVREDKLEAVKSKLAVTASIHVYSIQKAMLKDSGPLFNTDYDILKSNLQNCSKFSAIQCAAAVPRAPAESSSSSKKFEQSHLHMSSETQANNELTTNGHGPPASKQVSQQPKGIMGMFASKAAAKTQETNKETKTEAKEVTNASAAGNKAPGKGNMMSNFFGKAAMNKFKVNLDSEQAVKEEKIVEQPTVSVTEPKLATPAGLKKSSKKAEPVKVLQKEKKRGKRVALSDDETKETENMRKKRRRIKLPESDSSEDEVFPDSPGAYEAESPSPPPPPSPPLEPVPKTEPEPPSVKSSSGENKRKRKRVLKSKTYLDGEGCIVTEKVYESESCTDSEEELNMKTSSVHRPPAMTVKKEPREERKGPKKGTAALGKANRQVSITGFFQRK
UniProt P78330: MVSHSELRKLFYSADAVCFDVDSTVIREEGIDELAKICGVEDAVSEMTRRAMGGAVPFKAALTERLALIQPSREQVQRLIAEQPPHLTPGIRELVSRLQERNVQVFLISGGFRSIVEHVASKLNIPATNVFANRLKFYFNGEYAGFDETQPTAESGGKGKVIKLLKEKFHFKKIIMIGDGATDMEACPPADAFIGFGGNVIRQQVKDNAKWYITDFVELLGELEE
UniProt P51665: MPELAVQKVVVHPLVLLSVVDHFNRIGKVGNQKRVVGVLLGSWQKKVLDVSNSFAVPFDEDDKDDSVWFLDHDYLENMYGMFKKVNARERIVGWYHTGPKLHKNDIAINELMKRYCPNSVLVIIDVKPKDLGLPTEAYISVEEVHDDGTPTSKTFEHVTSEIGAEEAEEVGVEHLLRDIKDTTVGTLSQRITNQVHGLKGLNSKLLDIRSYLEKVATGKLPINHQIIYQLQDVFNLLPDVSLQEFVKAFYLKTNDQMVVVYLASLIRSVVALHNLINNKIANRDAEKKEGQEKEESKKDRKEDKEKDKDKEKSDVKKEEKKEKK
UniProt Q8NDX1: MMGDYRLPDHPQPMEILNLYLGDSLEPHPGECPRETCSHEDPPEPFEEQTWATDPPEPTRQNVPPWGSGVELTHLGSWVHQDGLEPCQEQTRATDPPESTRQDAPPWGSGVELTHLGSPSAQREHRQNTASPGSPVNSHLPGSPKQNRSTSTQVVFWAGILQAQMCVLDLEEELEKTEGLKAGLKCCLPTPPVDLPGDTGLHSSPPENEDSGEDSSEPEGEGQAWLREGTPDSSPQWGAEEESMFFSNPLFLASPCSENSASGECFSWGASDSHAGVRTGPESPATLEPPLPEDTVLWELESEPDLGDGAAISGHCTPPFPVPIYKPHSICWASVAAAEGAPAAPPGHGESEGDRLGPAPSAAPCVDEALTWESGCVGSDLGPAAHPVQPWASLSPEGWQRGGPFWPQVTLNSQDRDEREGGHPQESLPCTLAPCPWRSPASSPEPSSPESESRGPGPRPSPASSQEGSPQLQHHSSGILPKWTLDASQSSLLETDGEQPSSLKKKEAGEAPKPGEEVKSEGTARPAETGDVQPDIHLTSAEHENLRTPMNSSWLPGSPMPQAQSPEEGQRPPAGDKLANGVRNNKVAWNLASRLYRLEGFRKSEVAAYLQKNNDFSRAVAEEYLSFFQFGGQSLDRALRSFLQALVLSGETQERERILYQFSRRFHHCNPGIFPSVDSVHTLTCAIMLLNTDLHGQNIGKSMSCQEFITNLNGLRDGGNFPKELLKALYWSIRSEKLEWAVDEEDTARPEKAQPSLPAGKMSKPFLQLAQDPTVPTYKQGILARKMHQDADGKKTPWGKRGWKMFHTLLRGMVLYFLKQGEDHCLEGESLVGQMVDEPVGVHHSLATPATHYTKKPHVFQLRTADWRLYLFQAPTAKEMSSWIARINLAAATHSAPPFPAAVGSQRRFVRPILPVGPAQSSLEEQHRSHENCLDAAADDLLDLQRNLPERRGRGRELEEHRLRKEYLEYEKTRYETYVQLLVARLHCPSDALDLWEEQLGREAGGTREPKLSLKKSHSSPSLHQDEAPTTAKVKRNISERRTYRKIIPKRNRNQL
UniProt P25788: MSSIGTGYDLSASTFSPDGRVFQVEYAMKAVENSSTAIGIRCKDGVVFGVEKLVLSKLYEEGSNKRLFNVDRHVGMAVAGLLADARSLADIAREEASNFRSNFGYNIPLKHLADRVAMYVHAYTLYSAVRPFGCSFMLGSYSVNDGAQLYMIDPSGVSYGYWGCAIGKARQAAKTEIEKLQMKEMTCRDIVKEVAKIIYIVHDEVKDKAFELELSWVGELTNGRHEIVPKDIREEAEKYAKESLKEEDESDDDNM
UniProt Q06203, whole entry: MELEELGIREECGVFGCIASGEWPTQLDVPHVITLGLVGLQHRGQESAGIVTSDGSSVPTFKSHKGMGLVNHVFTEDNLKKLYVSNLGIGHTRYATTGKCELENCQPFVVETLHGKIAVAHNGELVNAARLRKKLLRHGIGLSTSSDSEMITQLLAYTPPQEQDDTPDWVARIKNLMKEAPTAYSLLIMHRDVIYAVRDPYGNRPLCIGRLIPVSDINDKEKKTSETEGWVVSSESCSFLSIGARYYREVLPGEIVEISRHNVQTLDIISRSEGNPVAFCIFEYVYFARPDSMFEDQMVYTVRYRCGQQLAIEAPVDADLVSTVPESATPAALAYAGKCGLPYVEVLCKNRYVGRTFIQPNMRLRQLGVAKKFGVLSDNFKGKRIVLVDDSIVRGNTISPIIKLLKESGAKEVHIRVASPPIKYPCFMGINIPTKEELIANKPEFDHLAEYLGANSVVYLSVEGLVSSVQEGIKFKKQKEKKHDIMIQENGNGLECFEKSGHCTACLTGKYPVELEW
UniProt O00232: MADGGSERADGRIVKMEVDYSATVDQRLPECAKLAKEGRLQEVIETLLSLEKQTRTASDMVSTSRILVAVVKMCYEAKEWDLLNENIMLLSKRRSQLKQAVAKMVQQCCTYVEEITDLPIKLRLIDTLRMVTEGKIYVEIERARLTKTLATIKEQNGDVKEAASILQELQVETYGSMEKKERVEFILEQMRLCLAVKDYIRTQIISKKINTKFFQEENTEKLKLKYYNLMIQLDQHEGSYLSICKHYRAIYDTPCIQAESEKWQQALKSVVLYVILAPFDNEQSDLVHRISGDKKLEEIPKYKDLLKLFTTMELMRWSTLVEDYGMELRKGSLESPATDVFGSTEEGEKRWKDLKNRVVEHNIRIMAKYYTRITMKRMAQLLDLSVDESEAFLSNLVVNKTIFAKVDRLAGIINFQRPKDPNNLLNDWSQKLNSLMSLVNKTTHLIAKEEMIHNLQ
UniProt Q8WWY3: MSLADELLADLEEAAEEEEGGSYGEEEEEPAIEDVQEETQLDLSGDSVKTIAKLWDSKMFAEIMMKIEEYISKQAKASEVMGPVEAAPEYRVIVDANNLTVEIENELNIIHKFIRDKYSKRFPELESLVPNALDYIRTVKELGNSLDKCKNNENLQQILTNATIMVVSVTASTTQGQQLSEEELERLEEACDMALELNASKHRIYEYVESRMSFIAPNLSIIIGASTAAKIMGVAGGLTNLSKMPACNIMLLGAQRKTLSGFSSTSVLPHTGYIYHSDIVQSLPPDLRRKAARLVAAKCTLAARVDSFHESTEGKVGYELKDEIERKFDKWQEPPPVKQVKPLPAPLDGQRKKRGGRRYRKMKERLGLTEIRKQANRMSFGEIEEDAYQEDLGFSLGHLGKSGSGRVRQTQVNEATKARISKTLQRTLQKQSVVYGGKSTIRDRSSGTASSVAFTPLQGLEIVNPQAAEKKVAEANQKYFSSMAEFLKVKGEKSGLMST
UniProt P63098, whole entry, looked up: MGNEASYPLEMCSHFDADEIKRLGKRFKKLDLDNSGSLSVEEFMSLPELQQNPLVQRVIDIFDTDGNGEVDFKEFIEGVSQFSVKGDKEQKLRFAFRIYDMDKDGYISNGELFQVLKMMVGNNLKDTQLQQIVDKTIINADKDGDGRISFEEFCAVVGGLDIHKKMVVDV
UniProt Q9NQV6: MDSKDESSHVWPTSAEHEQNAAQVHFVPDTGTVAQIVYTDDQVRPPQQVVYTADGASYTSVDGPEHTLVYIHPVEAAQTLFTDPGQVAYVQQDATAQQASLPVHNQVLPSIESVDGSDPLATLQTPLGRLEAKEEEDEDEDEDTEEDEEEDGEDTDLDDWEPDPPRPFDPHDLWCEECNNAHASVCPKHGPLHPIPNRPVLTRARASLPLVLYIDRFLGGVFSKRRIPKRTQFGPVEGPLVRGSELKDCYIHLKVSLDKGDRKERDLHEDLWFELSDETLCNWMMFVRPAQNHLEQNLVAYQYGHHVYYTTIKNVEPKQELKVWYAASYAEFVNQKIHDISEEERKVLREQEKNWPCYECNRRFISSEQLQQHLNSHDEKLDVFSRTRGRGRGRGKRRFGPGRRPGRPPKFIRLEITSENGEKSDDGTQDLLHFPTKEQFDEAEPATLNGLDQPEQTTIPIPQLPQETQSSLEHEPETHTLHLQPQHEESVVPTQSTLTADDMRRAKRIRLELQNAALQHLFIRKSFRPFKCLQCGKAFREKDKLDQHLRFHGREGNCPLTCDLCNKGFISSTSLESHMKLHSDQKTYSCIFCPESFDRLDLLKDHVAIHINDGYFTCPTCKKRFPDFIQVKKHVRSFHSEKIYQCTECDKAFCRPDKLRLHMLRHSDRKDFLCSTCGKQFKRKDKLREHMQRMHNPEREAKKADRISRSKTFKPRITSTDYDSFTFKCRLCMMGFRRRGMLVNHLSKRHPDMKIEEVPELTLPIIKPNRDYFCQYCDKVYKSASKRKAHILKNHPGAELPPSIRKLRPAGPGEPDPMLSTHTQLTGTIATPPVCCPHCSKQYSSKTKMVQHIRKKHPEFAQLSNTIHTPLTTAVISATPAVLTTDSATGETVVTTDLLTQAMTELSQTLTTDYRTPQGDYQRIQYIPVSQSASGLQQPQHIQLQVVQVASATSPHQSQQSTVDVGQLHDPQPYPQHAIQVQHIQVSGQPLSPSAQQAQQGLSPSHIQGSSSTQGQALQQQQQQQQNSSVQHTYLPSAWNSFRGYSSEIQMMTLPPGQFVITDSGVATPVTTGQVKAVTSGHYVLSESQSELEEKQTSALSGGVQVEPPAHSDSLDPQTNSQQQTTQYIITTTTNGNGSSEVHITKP
UniProt Q9H9Y6, whole entry: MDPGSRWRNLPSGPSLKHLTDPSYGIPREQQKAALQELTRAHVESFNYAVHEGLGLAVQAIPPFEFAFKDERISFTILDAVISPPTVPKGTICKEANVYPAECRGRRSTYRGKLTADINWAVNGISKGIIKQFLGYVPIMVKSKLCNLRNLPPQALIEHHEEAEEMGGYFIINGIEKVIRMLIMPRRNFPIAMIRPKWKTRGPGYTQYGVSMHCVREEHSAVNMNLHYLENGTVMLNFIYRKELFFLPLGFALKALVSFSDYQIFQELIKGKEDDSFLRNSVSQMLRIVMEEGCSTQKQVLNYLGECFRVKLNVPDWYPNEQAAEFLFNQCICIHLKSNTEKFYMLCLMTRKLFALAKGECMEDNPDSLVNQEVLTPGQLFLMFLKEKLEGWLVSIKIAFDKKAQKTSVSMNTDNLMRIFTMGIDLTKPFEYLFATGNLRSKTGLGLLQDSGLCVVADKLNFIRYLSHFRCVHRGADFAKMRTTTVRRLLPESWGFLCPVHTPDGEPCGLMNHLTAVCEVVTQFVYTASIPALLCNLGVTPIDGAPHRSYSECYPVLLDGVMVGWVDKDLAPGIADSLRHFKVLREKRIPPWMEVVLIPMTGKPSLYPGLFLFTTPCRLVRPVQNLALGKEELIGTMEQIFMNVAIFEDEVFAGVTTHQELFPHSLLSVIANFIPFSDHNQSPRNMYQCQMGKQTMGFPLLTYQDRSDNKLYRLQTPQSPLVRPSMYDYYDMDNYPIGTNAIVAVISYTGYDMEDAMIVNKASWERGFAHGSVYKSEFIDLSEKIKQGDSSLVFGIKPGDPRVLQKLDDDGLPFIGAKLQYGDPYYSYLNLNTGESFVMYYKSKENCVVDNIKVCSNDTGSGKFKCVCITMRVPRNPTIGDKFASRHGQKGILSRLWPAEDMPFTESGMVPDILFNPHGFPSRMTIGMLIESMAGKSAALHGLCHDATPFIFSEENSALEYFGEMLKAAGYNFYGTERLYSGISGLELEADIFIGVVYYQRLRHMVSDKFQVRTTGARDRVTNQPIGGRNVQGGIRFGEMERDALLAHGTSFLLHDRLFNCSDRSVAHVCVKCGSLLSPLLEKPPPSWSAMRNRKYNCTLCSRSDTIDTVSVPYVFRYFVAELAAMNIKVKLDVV

Target | dose-dependent thermal stabilisation call
PRPS1 (UniProt P60891) | inactive: 0
POLD3 (UniProt Q15054) | inactive: 0
PSPH (UniProt P78330) | inactive: 0
PTPRA (UniProt P18433) | inactive: 0
PPME1 (UniProt Q9Y570) | inactive: 0
PSMD7 (UniProt P51665) | inactive: 0
PTPN13 (UniProt Q12923) | inactive: 0
PRPF38A (UniProt Q8NAV1) | inactive: 0
PTCD1 (UniProt O75127) | inactive: 0
PSD4 (UniProt Q8NDX1) | inactive: 0
PSMA3 (UniProt P25788) | inactive: 0
POM121C (UniProt A8CG34) | inactive: 0
PSMA1 (UniProt P25786) | inactive: 0
POMT2 (UniProt Q9UKY4) | inactive: 0
PSMB10 (UniProt P40306) | inactive: 0
PTMS (UniProt P20962) | inactive: 0
PSMC2 (UniProt P35998) | inactive: 0
PRUNE (UniProt Q86TP1) | inactive: 0

Target | dose-dependent thermal stabilisation call
PNPT1 (UniProt Q8TCS8) | inactive: 0
PRRC1 (UniProt Q96M27) | inactive: 0
PRKCD (UniProt Q05655) | inactive: 0
PPAT (UniProt Q06203) | inactive: 0
PPP1R12A (UniProt O14974) | inactive: 0
PSMD12 (UniProt O00232) | inactive: 0
PRPF31 (UniProt Q8WWY3) | inactive: 0
PSMB9 (UniProt P28065) | inactive: 0
PPP3R1 (UniProt P63098) | inactive: 0
PRDM10 (UniProt Q9NQV6) | inactive: 0
PLXND1 (UniProt Q9Y4D7) | inactive: 0
PPP2R4 (UniProt Q15257) | inactive: 0
PSMD5 (UniProt Q16401) | inactive: 0
PRPF8 (UniProt Q6P2Q9) | inactive: 0
POLR1B (UniProt Q9H9Y6) | inactive: 0
PPP2R5A (UniProt Q15172) | inactive: 0
POLR2F (UniProt P61218) | inactive: 0
PSMA6 (UniProt P60900) | inactive: 0

As a short view, part of the list above.
Target | dose-dependent thermal stabilisation call
PSMB9 (UniProt P28065) | inactive: 0
PPP3R1 (UniProt P63098) | inactive: 0

Reference: the supplement of paper PMC7666118
